# Values of other authors, collected in patent publication US20070031367A1, “Composition and method for neck skin firming” (priority 2004, published 2007).
# Like-named read-outs stand apart in the source and are kept apart here.
# Settings: comparison chart of pepper varieties and pure capsaicin, extract as sourced from vendor
smiles,measurement,setting,value
"COc1cc(CNC(=O)CCCC/C=C/C(C)C)ccc1O [Capsaicin, N-canillyl-8-methyl-6-(E)-noneamide]",Scoville Units,,"about 16,000,000 Scoville Units"
same,Scoville Units,listed as Pure Capsaicin,"16,000,000 Scoville Units"
